PubChem BioAssay AID743121 – NCATS | 2013
Screen: 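Partners whose loss is lethal together with topoisomerase I blockade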 (primary screen). Cell system: MDA-MB-231 cells, a human breast cancer line. Reagent: single siRNA against human genes, 20 nM siRNA (0.8 pmol per well). Time to read-out: 120 h (drug added 48 h after transfection, read 72 h later). Treatment: camptothecin 20 nM (about EC30) for 72 h; vehicle 0.1% DMSO in parallel plates. Detection: 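CellTiter-Glo ATP signal, scaled to control siRNA as percent viability; sensitisation given as log2 of untreated divided by camptothecin-treated viability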. Scale: log2 vehicle/camptothecin viability: higher = stronger sensitisation to camptothecin; viability with camptothecin: higher = more viable cells. Units: viability with camptothecin in % of control. Hit rule: 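Each gene scored by redundant siRNA activity (RSA) over its individual siRNA ratios; a gene is called active at p < 0.001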.
Here is a random part of about 26,000 reagents tested. In the full data, 167 (0.63%) were called active. 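Calls are per gene from RSA p-values that are not deposited; an individual active-marked siRNA can sensitise only weakly.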 Entries without a mark were called inactive. The numbers tell different reagents against one gene apart. Not all columns of the deposit are shown.

The first 4 entries as a preview:
IBSP (integrin binding sialoprotein) #1: log2 vehicle/camptothecin viability = -0.0677 (active); viability with camptothecin = 99.7
IBSP (integrin binding sialoprotein) #2: log2 vehicle/camptothecin viability = 0.846 (active); viability with camptothecin = 11.6
IBSP (integrin binding sialoprotein) #3: log2 vehicle/camptothecin viability = 1.12 (active); viability with camptothecin = 11.6
EXT2 (exostosin glycosyltransferase 2) #1: log2 vehicle/camptothecin viability = -0.332; viability with camptothecin = 52.6

The listing, from the start:
IBSP (integrin binding sialoprotein) #1: log2 vehicle/camptothecin viability = -0.0677 (active); viability with camptothecin = 99.7
IBSP (integrin binding sialoprotein) #2: log2 vehicle/camptothecin viability = 0.846 (active); viability with camptothecin = 11.6
IBSP (integrin binding sialoprotein) #3: log2 vehicle/camptothecin viability = 1.12 (active); viability with camptothecin = 11.6
EXT2 (exostosin glycosyltransferase 2) #1: log2 vehicle/camptothecin viability = -0.332; viability with camptothecin = 52.6
EXT2 (exostosin glycosyltransferase 2) #2: log2 vehicle/camptothecin viability = -0.25; viability with camptothecin = 69.4
EXT2 (exostosin glycosyltransferase 2) #3: log2 vehicle/camptothecin viability = -0.253; viability with camptothecin = 102
EXT2 (exostosin glycosyltransferase 2) #4: log2 vehicle/camptothecin viability = 0.307; viability with camptothecin = 88.3
SAP30 (Sin3A associated protein 30) #1: log2 vehicle/camptothecin viability = -0.102; viability with camptothecin = 62
SAP30 (Sin3A associated protein 30) #2: log2 vehicle/camptothecin viability = -0.144; viability with camptothecin = 97.7
SAP30 (Sin3A associated protein 30) #3: log2 vehicle/camptothecin viability = 0.0474; viability with camptothecin = 66.8
CADM2 (cell adhesion molecule 2) #1: log2 vehicle/camptothecin viability = -0.0156; viability with camptothecin = 113
CADM2 (cell adhesion molecule 2) #2: log2 vehicle/camptothecin viability = 0.206; viability with camptothecin = 64.5
CADM2 (cell adhesion molecule 2) #3: log2 vehicle/camptothecin viability = -0.169; viability with camptothecin = 74.3
CADM2 (cell adhesion molecule 2) #4: log2 vehicle/camptothecin viability = 0.191; viability with camptothecin = 86.1
CARD14 (caspase recruitment domain family member 14) #1: log2 vehicle/camptothecin viability = -0.393; viability with camptothecin = 58
CARD14 (caspase recruitment domain family member 14) #2: log2 vehicle/camptothecin viability = 0.181; viability with camptothecin = 46.3
CARD14 (caspase recruitment domain family member 14) #3: log2 vehicle/camptothecin viability = -0.323; viability with camptothecin = 46.9
CARD14 (caspase recruitment domain family member 14) #4: log2 vehicle/camptothecin viability = -0.343; viability with camptothecin = 58.7
RAB9A (RAB9A, member RAS oncogene family) #1: log2 vehicle/camptothecin viability = 0.241; viability with camptothecin = 70
RAB9A (RAB9A, member RAS oncogene family) #2: log2 vehicle/camptothecin viability = -0.417; viability with camptothecin = 81.4
RAB9A (RAB9A, member RAS oncogene family) #3: log2 vehicle/camptothecin viability = -0.139; viability with camptothecin = 91.9
RAB9A (RAB9A, member RAS oncogene family) #4: log2 vehicle/camptothecin viability = -0.254; viability with camptothecin = 134
RNF103 (ring finger protein 103) #1: log2 vehicle/camptothecin viability = 0.167; viability with camptothecin = 63.5
RNF103 (ring finger protein 103) #2: log2 vehicle/camptothecin viability = -0.127; viability with camptothecin = 57.2
RNF103 (ring finger protein 103) #3: log2 vehicle/camptothecin viability = 0.192; viability with camptothecin = 99.5
RNF103 (ring finger protein 103) #4: log2 vehicle/camptothecin viability = 0.837; viability with camptothecin = 35.3
SH3BP2 (SH3 domain binding protein 2) #1: log2 vehicle/camptothecin viability = -0.228; viability with camptothecin = 69.4
SH3BP2 (SH3 domain binding protein 2) #2: log2 vehicle/camptothecin viability = 0.583; viability with camptothecin = 49.2
SH3BP2 (SH3 domain binding protein 2) #3: log2 vehicle/camptothecin viability = -0.306; viability with camptothecin = 102
ANAPC1 (anaphase promoting complex subunit 1) #1: log2 vehicle/camptothecin viability = -0.142; viability with camptothecin = 32.8
ANAPC1 (anaphase promoting complex subunit 1) #2: log2 vehicle/camptothecin viability = -0.0195; viability with camptothecin = 58.2
ANAPC1 (anaphase promoting complex subunit 1) #3: log2 vehicle/camptothecin viability = -0.00976; viability with camptothecin = 74.2
ANAPC1 (anaphase promoting complex subunit 1) #4: log2 vehicle/camptothecin viability = -0.538; viability with camptothecin = 64.7
ANAPC1 (anaphase promoting complex subunit 1) #5: log2 vehicle/camptothecin viability = -0.186; viability with camptothecin = 36
ANAPC1 (anaphase promoting complex subunit 1) #6: log2 vehicle/camptothecin viability = -0.302; viability with camptothecin = 36.2
HK1 (hexokinase 1) #1: log2 vehicle/camptothecin viability = 0.759; viability with camptothecin = 25.8
HK1 (hexokinase 1) #2: log2 vehicle/camptothecin viability = 0.309; viability with camptothecin = 27.4
HK1 (hexokinase 1) #3: log2 vehicle/camptothecin viability = 0.00431; viability with camptothecin = 46.2
HK1 (hexokinase 1) #4: log2 vehicle/camptothecin viability = -0.0306; viability with camptothecin = 107
CDC25B (cell division cycle 25B) #1: log2 vehicle/camptothecin viability = -0.239; viability with camptothecin = 76.9
CDC25B (cell division cycle 25B) #2: log2 vehicle/camptothecin viability = -0.0623; viability with camptothecin = 50.3
CDC25B (cell division cycle 25B) #3: log2 vehicle/camptothecin viability = -0.499; viability with camptothecin = 93.8
CDC25B (cell division cycle 25B) #4: log2 vehicle/camptothecin viability = -0.232; viability with camptothecin = 36.9
FAT2 (FAT atypical cadherin 2) #1: log2 vehicle/camptothecin viability = -0.0969; viability with camptothecin = 106
FAT2 (FAT atypical cadherin 2) #2: log2 vehicle/camptothecin viability = 0.239; viability with camptothecin = 42.4
FAT2 (FAT atypical cadherin 2) #3: log2 vehicle/camptothecin viability = -0.201; viability with camptothecin = 89.5
